In all, about 33,000 sequences were measured (“E-score (-0.5 to 0.5)”: median about -0.0034, highest 2% from about 0.25 on). The list shows a part of the results.
What follows are sequences tested against T1, Yap3 (UniProt P38749) (assay: PBM E-score (8-mer binding enrichment) (E-score (-0.5 to 0.5)); higher = stronger / more preferred TF binding). Settings: protein concentration: 100 nM; construct: GST-full length.
T1 sequence: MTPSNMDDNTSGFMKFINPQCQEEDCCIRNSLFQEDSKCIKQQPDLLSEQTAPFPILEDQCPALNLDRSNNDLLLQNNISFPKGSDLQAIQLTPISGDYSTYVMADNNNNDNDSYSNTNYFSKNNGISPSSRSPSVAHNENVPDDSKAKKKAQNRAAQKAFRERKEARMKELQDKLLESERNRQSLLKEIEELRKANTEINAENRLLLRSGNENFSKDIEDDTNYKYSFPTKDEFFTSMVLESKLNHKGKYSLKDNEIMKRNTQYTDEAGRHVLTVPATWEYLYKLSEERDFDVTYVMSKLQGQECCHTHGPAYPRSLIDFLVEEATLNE
Outline: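 PURExpress in vitro transcription/translation supplied GST-tagged yeast transcription factors, either full-length or DNA-binding domain. Applied at about 100-200 nM to universal all-10-mer Agilent arrays double-stranded by primer extension, the bound protein was detected with fluorescent anti-GST. E-scores, modified Wilcoxon-Mann-Whitney statistics, were given by the Universal PBM Analysis Suite to ungapped eight-base words pooled with their reverse complements after masliner normalisation.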

Sequence | PBM E-score
AGGAGTAG | -0.0276
AGCAGCAA | 0.0125
ACAGGGGT | -0.169
CGGAGTGC | -0.11
AGCGTTTG | -0.186
GGGCGGGA | 0.0646
ACCAACAC | 0.156
CCGTCCAA | -0.0198
ACGACCGT | -0.111
GCAGGCAC | -0.279
AGGATCGC | -0.0222
CGAGTACA | 0.0861
CTAAGAAA | 0.165
ACCCTTAA | 0.0439
ACTACCCT | -0.115
GACTCCAC | -0.309
AGCTGCAC | -0.0225
ACTCTTTG | -0.0249
CCAACCAC | 0.0919
AACTCACA | 0.132
TCGGGCCA | -0.132
AGCGCACA | 0.0378
GTAATCAC | 0.148
AACCGTAC | -0.127
CCCCGTTC | -0.264

Sequence | PBM E-score
ACGTTAAT | 0.178
CACCGAAC | -0.131
CCGATCAG | -0.00295
TACCCAGA | 0.0688
CACGCGTG | 0.0849
ATCGGGAA | 0.0249
CGTAGTTA | 0.0738
CCGCTCCA | -0.282
ACCCACCG | -0.00295
GATAAGCC | -0.133
CATATTAG | 0.184
AGGCTCCA | -0.127
CCCGTAAA | 0.0336
ACACGGAC | -0.0491
CACAATTA | 0.106
GTATGTAA | 0.151
GACCGGTC | -0.175
GACCTTCC | -0.156
GAAGGGGA | -0.233
ATTACTAG | -0.0453
ATTCCTGG | -9e-05
GCGGCCAA | -0.0885
GGCTTGTA | -0.0856
ACATGGGA | 0.154
TATACGGA | 0.0234

Sequence | PBM E-score
CCCTTTAA | -0.0346
AGACAGCC | -0.152
CCACCGTC | -0.265
TATGCTAA | 0.0405
AAGTTCTC | 0.0195
AGTAAGCG | 0.101
CGGATCAC | 0.0833
GCCTTACA | -0.231
ATGCCGTA | 0.101
CGCATTGC | 0.0586
CACGCCTG | -0.281
AAGTACCG | 0.0832
CTGAACGA | -0.0456
ACATCGTG | -0.00683
AAGGATTG | 0.044
AGCACCAA | 0.0943
GTCACATA | -0.0505
AACCGATC | -0.0797
CACACACC | -0.0904
CTCCGGCC | -0.343
CATCTCAC | -0.0458
CTCTCTCA | -0.0104
AAGTTTGT | 0.0855
CCATCCGC | -0.0491
AAAGAGGC | -0.0407

Sequence | PBM E-score
ATGCAGGC | -0.0848
CGATCCAC | -0.0503
CCTCAAGG | -0.145
TGGCGTAA | -0.0144
AGGCGTGA | -0.218
CAAGGCAG | -0.0175
GAGCCGAA | -0.0315
ATTCCACC | 0.102
ACTGACAC | 0.0624
AAGGGAAT | 0.0766
GCCCCCAC | -0.379
CTCCTCTC | -0.269
ATCGAAGA | 0.154
ACGAGGAC | 0.0227
CGCACTAA | 0.166
CGTATCGC | 0.0192
TTCCACAA | 0.192
TACAGCCA | -0.0886
CGTAATAA | 0.29
AGCTACAC | -0.0326
CTTCTCGC | 0.143
CGGCTGAC | -0.056
CGTTTCTA | 0.148
ATTTCGCC | 0.225
GATACCTA | 0.232

A few values from above.
PBM E-score, ATGCAGGC reads -0.0848
PBM E-score, TGGCGTAA reads -0.0144
PBM E-score, GAGCCGAA reads -0.0315
PBM E-score, ATCGAAGA reads 0.154
PBM E-score, AGCTACAC reads -0.0326

An excerpt of these results, with each value named.
CTCCTCTC
  PBM E-score: -0.269
ATCGAAGA
  PBM E-score: 0.154
ACGAGGAC
  PBM E-score: 0.0227
CGCACTAA
  PBM E-score: 0.166

The results go on.

Sequence | PBM E-score
ATCATGAG | 0.0895
GATACAGA | 0.111
ACGAATCG | 0.141
CGGTTGCA | -0.17
CGGAGCCG | -0.253
AGCGAACG | -0.158
CTTAGGAC | -0.0958
CCCACGAA | -0.00731
TCCAGTAA | 0.0121
TACTAGCA | 0.102
AGTGTTTG | 0.145
AATCCTGG | -0.00906
GCTCGCGA | 0.109
GATAGGTA | 0.18
TCGATCGA | 0.155
ACATTTAG | -0.0147
CGCCGTGC | -0.141
CGCTTAGA | -0.115
GTTCTCTA | 0.1
GAAGGTGC | -0.125
CATGCCAG | -0.0993
ACGATGTC | -0.136
AGCGTTAT | -0.0355
CCAAGATA | -0.018
AACTGGCC | -0.0213

Sequence | PBM E-score
AAACCCTT | 0.0938
CATCGCCA | 0.0129
GATATCTA | 0.0543
GTAACTTA | 0.221
GGTTTCAC | 0.0673
GCCTCTCA | -0.194
CATCCCGA | -0.00347
GTATAAAA | 0.287
GGCTGGGA | -0.103
ACACCTAT | 0.0196
TGTTAGAA | 0.0937
CTGTTGGC | 0.0055
ACGAGTGA | -0.148
ATGCGGAG | -0.244
AGTTCTAT | 0.12
ACAACATG | 0.136
TCGTTAGA | -0.272
CGATACTC | 0.0503
CCGTGAGG | -0.322
AGACGTAC | -0.1
AACCTCTC | 0.0137
AACGGCCG | 0.0727
CCCAGGCA | -0.194
CCGCCAGA | 0.0222
GACACACA | 0.00427

Sequence | PBM E-score
ATCCGCCC | -0.216
ACGCCACG | -0.156
CAGAAGGG | -0.303
CGTACCAC | 0.0737
GCTACCCC | -0.299
CCCATGCC | -0.281
CACGCAAC | 0.159
AACACCTA | -0.0441
ACGGTCAC | -0.137
CAGCAGCC | -0.118
AGTAAGTG | 0.0765
TCTTAGCA | -0.107
AGTGACCA | -0.0575
GTGAACAC | -0.156
ATATATTA | 0.32
GGCGCGAA | -0.0201
CGCGCGAC | 0.0956
ACACGCAC | -0.144
TCCGAACA | 0.14
AAAGGGGA | -0.186
ACACTGTG | 0.0222
CGATGGAG | 0.0127
GGAGTCGA | -0.157
CGTACGAC | -0.0969
CAGATCAC | -0.0752

Sequence | PBM E-score
CGTAATTA | 0.335
ATGGACGG | 0.0351
ACATATAC | 0.146
AGGCAAGG | -0.22
CGGCAGGC | -0.189
ACTGGGAT | -0.0213
ACGCTGGG | -0.302
GGTAGTTA | 0.0916
CGGCGGGC | -0.189
GTGATTCA | 0.0177
ATGCGAGA | 0.0542
ACGACGCC | -0.231
CAAATACC | 0.0818
CCGCTGCC | -0.0814
AGCTAAAG | 0.0356
GGCTGCGA | -0.0841
CACCGTGG | -0.307
CAGTCCGC | -0.102
AAACTATA | 0.19
AAACCTTA | 0.0835
ACTACGTG | -0.166
CATCAAAG | -0.0478
GAGATCTC | 0.111
AGCAAATG | 0.0505
TAGAGACA | -0.097

Pulled one by one from above:
Sequence | PBM E-score
ACGCTGGG | -0.302
AGGCAAGG | -0.22

(cont.)

Sequence | PBM E-score
GGCATTAC | 0.178
ATCCTGTA | 0.102
ATACTAAA | 0.188
AGCCAAAC | 0.046
CGAATCTC | -0.0851
CGCGTCAA | 0.135
ATCGTGAG | -0.114
GGCTTTAA | -0.0077
CTGCGTCC | -0.231
CAATCGGG | -0.05
AAAAGTGA | 0.132
GGAACGGA | 0.0495
GAGTCATA | 0.0239
ATATTTAC | 0.208
ATGGTGGC | -0.204
CTACAGAG | -0.124
GGAATATA | 0.219
GCACGCAA | -0.151
CGCCTAGC | -0.187
